Laboratory results taken from US20190083616A1 (UNIVERSITY OF TENESSEE RESEARCH FOUNDATION, published 2019).
Results are given in words; binding and its absence hold for the method and conditions named. In cells and extracts the contact can be indirect. Some entries that bind do so weakly or less than the wild type.

Chains of the proteins cited; added tags and fusions are not shown. Residues count along the entry.
UniProt P05067, residues 672-711: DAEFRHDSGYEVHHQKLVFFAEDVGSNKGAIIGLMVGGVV
UniProt P10997, residues 34-70: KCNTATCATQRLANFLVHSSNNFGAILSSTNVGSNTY

What was measured:
[1] = biological target: synthetic Aβ(1-40) amyloid fibrils (UniProt P05067); test: pulldown, 125I-peptide, synthetic fibrils
[2] = biological target: synthetic islet amyloid polypeptide (IAPP) fibrils (UniProt P10997); test: pulldown, 125I-peptide, synthetic fibrils
[3] = biological target: synthetic Aβ(1-40) amyloid fibrils (UniProt P05067); test: pulldown, 125I-peptide, 1.0 M NaCl (FIG. 13B)
[4] = biological target: synthetic islet amyloid polypeptide (IAPP) fibrils (UniProt P10997); test: pulldown, 125I-peptide, 1.0 M NaCl (FIG. 13B)
[5] = biological target: synthetic Aβ(1-40) amyloid fibrils (UniProt P05067); test: pulldown, 125I-peptide, 0.15 M NaCl (FIG. 13A)
[6] = biological target: synthetic islet amyloid polypeptide (IAPP) fibrils (UniProt P10997); test: pulldown, 125I-peptide, 0.15 M NaCl (FIG. 13A)
[7] = biological target: synthetic Aβ(1-40) amyloid fibrils (UniProt P05067); test: pulldown: 125I-labelled peptide with fibrils, amyloid extract or liver homogenate in PBST, 0.15 M NaCl; pellet cpm as % of total
[8] = biological target: synthetic islet amyloid polypeptide (IAPP) fibrils (UniProt P10997); test: as above
[9] = biological target: synthetic Aβ(1-40) amyloid fibrils (UniProt P05067); test: pulldown: 125I-labelled peptide with fibrils, amyloid extract or liver homogenate in PBST with 1 M NaCl; pellet cpm as % of total
[10] = biological target: synthetic islet amyloid polypeptide (IAPP) fibrils (UniProt P10997); test: as above
[11] = biological target: synthetic Aβ(1-40) amyloid fibrils (UniProt P05067); test: pulldown, peptope pre-incubated with fibrils, read out by 125I-7D8
[12] = biological target: synthetic islet amyloid polypeptide (IAPP) fibrils (UniProt P10997); test: as above

Measured: binding

B1: peptope p66 (p5+14 - SVTVVT linker - 11-1F4 12-mer epitope …) (peptide)
peptide: KAQKAQAKQAKQAQKAQKAQAKQAKQAQKAQKAQAKQAKQSVTVVTKHYAAFPENLLI
not listed: [11] | [12]
binds: all other assays above

GGGYSKAQKAQAKQAKQAQKAQKAQAKQAKQAQHEDT [peptope p75 (p5 - QAQ spacer - HEDT)]
binds: [11] | [12]

GGGYSKAQKAQAKQAKQAQKAQKAQAKQAKQGGGHEDT [peptope p76 (p5 - GGG spacer - HEDT)]
binds: [11] | [12]

GGGYSKAQKAQAKQAKQAQKAQKAQAKQAKQGPGHEDT [peptope p77 (p5 - GPG spacer - HEDT)]
binds: [11] | [12]

GGGYSKAQKAQAKQAKQAQKAQKAQAKQAKQVTVHEDT [peptope p78 (p5 - VTV spacer - HEDT)]
binds: [11] | [12]
